Results taken from doi:10.1101/2022.12.23.521824.
Results are given in words; binding and its absence hold for the method and conditions named. In cells and extracts the contact can be indirect. Binding calls can cover weak binding; strength is not graded here. Sequences can lack the tags named with a protein.

B1: Strep-GFP-tagged Haus3 (protein, UniProt Q6DCY9 1-597)
chain: MSGGDRFVQTLQKLNYPKGAQLDGEDFDWLFEAVDLKPFLDWFCSAASEQNVVPDEKLQAFNTLKESGKPVLDEKALDEVLKTFSISKVPAIEEVAIEKLEEEVKALQKQKNLHIRRRNKLQMVESGNRQMCLKSKDKEEETGRAFQEVLHLLRVTNKKLNHELQSIVNGVQTLMSFFSTPETACELSSQPIFLSQLLLDKYLSLEEQSTAALTSFTKEHFFEGMSKFVEGSDENFQLVQLNVNSFGEDGTTEDKCKEMMRLQLAYICAKHKLIQMKAKSASLKVGLQWAENNASVVQDKASQKEENLKVRITSLKNETLQIENHTNSISNEKLPGLVRDNAQLLNMPIVKGDYDLQMAHQTSCSSRQDLVCDHLMKQKASFELLQLGYELELRKHRDVYRELGSIVQELKESGDKLEERLTMLSDVNLLSASKPRSNIDSKDLTSHRLYQLLDGDNTQKLFRTYDGLESVAQKLSQDIASMRDQLEVSEQEHSLLLSKLDSHLKELRDFMYPEGNTLMLTTPELSGEFHQLGSQLEKLNHITVEILGDLQLKRKMLESNKLQQIEKQLYVYFFQNEEQLKSIVGKLEAQTGGGSSA
B2: Strep-GFP-tagged Haus8 (protein, UniProt Q0IHJ3 1-367)
chain: MSEAGVAPIEDGSQNSSGGSSGDAALKKSKGGAKVVKSRYMQIGRSKVSKNSLANTTVCSGGKVPERGSGGTPTRRSLAPHKAKITAAVPLPALDGSIFTKEDLQSTLLDGHRIARPDLDLSVINDRTLQKITPRPVVTSEQKKPKRDTTPVNLVPEDMVEMIESQTLLLTYLTIKMQKNLFRLEEKAERNLLLVNDQKDQLQETIHMMKRDLTLLQREERLRDLIEKQDEVLTPVVTSKDPFKDNYTTFATALDSTRHQLAIKNIHITGNRHRYLEELQKHLAITKSLLEEIMPSHASENAESFDTIKDLENIVLKTDEELARSFRQILDLSFKVNKEISLQSQKAVEETCESALVRQWYFDGSLP

Target: ZZ-tagged Haus6 (Xenopus laevis)
Assay: co-purification

Row | Binder | binding
1 | B1 | binds
2 | B2 | binds
